Measurements as given in patent US10947276B2, “Cell penetrating peptides with improved internalization properties” (SORBONNE UNIVERSITE, priority 2016, dated 2021).
Not every detail of the peptide structures is certain; ends, links or a residue may be inferred. No end group written: not given here.

How the values were obtained:
MDA-MB231 cells [1] = assay: Quantification of cellular internalization of FITC-labelled peptides by flow cytometry; type: cell-based, human; conditions: different concentrations, 4 h
MDA-MB231 cells [2] = assay: Intracellular localization of FITC-labelled peptides by fluorescence microscopy; type: cell-based, human; conditions: 30 μM; for cytoplasmic staining / nuclear staining: 4 h
Method: MDA-MB231 cells (3×10^4 cells/ml) were grown on cover slips and incubated 4 h with 30 μM of FITC-labelled peptides. Cells were washed 3 times with PBS, fixed with 4% paraformaldeyde (PFA) and analyzed by fluorescence microscopy. Cells treated with mut7DPT-FITC were used as control.
MDA-MB231 cells (3×10^4 cells/ml) were grown on cover slips and incubated with 30 μM of peptide for different periods of time. Cells were washed 3 times with PBS, fixed with 4% PFA and analyzed by fluorescence microscopy.
MDA-MB231 cells (3×10^4 cells/ml) were incubated in cover slips for 3 h with 15 μM of the FITC-labelled peptides associated to a cargo (TEAD or YAP peptides). Cells were washed 3 times with PBS, fixed with 4% PFA and analyzed by fluorescence microscopy.
For intracellular localization of FITC-labelled peptides, MDA-MB231 was seeded in an 8-well Labtek (Thermo Fischer) at a density of 3×10^4 cells/well. Cells were treated with different concentrations of FITC-labelled peptides for different times. Cells were fixed or not with 4% of formaldehyde for 15 min at room temperature. Samples were washed twice with PBS and mounted in mounting solution containing DAPI. Images were captured with a fluorescence microscopy (Olympus Japan) using 63× magnification objective.

| Sequence | internalization compared to mut7DPT control peptide (MDA-MB231 cells [1]) | incubation time upon which peptide is detected in the nucleus (MDA-MB231 cells [2]) [min] | cytoplasmic staining (MDA-MB231 cells [2]) | nuclear staining (MDA-MB231 cells [2]) | internalization, NLS18 versus NLS23 (MDA-MB231 cells [1]) |
| --- | --- | --- | --- | --- | --- |
| RKRKKKKKWKKWKKKPKKKKLD [NLS23] | higher internalization | 15 | low | punctuate nuclear staining |  |
| RKRKKKKKWKKWPKKKKLD [NLS18] | higher internalization | 30 | low | punctuate nuclear staining | better internalization than NLS23 |
